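Change in HTT-promoter-driven luminescence in engineered HEK293 reporter cells after a 24 h treatment, measured at one concentration. Percent change in reporter signal versus vehicle (0%) down to no light (-100%); more negative values mean stronger inhibition of promoter activity.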

Values are in %. Common to all entries: at 57.5 µM (top of the series). Only part of the assay is listed here, not a random draw.

Compound	activity change (%)
Cc1ccccc1Cn1nc(C)c(NC(=O)c2cc(CC(C)C)on2)c1C	-47.93
Cc1cc(C)cc(NC(=O)C(=O)NC(C)c2ccccc2)c1 (centres unmarked)	7.298
COc1cc(NC(=O)CC2C(=O)N(c3cccc(C)c3)C(=O)N2Cc2cccs2)cc(OC)c1 (centres unmarked)	-39.8
COc1ccc(-c2nc(SCCOc3cc(C)ccc3C(C)C)n3[nH]c(=O)cc3n2)cc1	-7.163
Cc1cc(C)cc(NS(=O)(=O)c2c(C)nc3scc(C)n3c2=O)c1	-19.38
Fc1ccc(C(Nc2ccccc2Cl)c2nnc(-c3ccccc3Cl)o2)cc1 (centres unmarked)	-24.07
COc1ccc(C2C=C(c3ccc(Cl)c(Cl)c3)Nc3ncnn32)cc1 (centres unmarked)	22.8
COC(=O)c1c(NC(=O)C2c3ccccc3Oc3ccccc32)sc2c1CCC(C)C2 (centres unmarked)	-12.83
COc1ccc(CCNC(=O)CCc2c(C)c3ccc(O)c(C)c3oc2=O)cc1	-6.651
O=C(CSc1nc(-c2cccs2)nc2cc(=O)[nH]n12)Nc1cccc(C(F)(F)F)c1	-15.11
COc1ccc(S(=O)(=O)Nc2cccc(-c3ccc(N4CCC(C)CC4)nn3)c2)c(OC)c1	17.54
COc1ccc(CCNC(=O)Cc2c(C)c3ccc(O)c(C)c3oc2=O)cc1OC	-19.55
Cc1coc2cc3oc(=O)c(CCC(=O)N4CCCCC4)c(C)c3cc12	10.57
COc1ccc(C2C(=O)N(C3CCC(C)CC3)CC(=O)N2CCC2=CCCCC2)cc1OC (centres unmarked)	-22.97
COc1ccc(-c2c3c(=O)n(C)c(=O)n(C)c3c3n2-c2ccccc2NC3c2ccccc2OC)cc1 (centres unmarked)	15.79
COC(=O)c1ccc(NC(=O)CN(Cc2ccccc2)S(=O)(=O)c2ccc(C)cc2)cc1	-44.97
Cc1ccc(-c2nc3ncccc3o2)cc1NC(=O)c1ccc(-c2ccc(Cl)cc2)o1	-15.86
COc1cc(Cl)c(NC(=O)c2cc3ccccn3n2)c(OC)c1	49.37
CCc1ccc(NC(=O)CC2C(=O)N(c3ccccc3)C(=O)N2C(C)C)cc1 (centres unmarked)	11.4
Cc1ccc(F)cc1NC(=O)CCc1c(C)nn(-c2ccc(N3CCCC3)nn2)c1C	-10.92
CC1CCN(c2ccc(-c3cccc(NS(=O)(=O)c4ccc(F)cc4F)c3)nn2)CC1	27.98
O=C(Nc1ccccc1C(F)(F)F)c1noc2c1CCCCC2	-16.51
O=C(c1cc(-c2cccc(Cl)c2)on1)N1CCCCC1	12.33
CCOC(=O)c1cc(C)n(CC2CCC(C(=O)Nc3cc(OC)cc(OC)c3)CC2)c1C (centres unmarked)	-27.67
Oc1cccc(C(Nc2ccccn2)c2ccc3cccnc3c2O)c1Cl (centres unmarked)	-7.893
CCc1nn(-c2ccccc2)c2nc(-c3ccccc3OC)c3cc(OC)c(OC)cc3c12	-26.36
CC1(C)CC(=O)c2c(oc3c(Cl)cc(NS(=O)(=O)c4ccc(Br)cc4)cc23)C1	-7.866
O=C(c1cc(-c2cccc(Cl)c2)on1)N1CCN(c2ccccc2)CC1	-1.288
CC(NC(=O)CN1C(=O)COc2ccc(Cl)cc21)c1ccccc1 (centres unmarked)	-18.26
O=C(NCCc1ccccc1)c1cc(-c2cccc(Cl)c2)on1	-3.238
CCC(C)NC(=O)c1ccccc1NC(=O)C1CCN(S(=O)(=O)Cc2ccccc2)CC1 (centres unmarked)	-15.86
Cc1cc(NC(=O)c2cc(-c3ccc(Br)cc3)on2)nn1Cc1ccc(Cl)cc1	-37.42
CCc1ccccc1NC(=O)CN(Cc1ccccc1)S(=O)(=O)c1ccc(Br)cc1	-50.36
COc1ccc2c(C)c(CCC(=O)NCc3ccc(OC)c(OC)c3)c(=O)oc2c1	-30.39
Cn1cnc2c(=O)oc3ccc(S(=O)(=O)Nc4ccc(F)cc4)cc3c21	-2.386
CCOc1ccc(CCNC(=O)Cn2nc(CC)n3c(cc4c(OC)cccc43)c2=O)cc1OCC	-8.479
CCOC(=O)c1ccc(NC(=O)c2ccc3c(c2)NC(=O)c2ccccc2S3)cc1	-51.95
CCCCN(CC)C(=O)c1ccc2c(c1)NC(=O)c1ccccc1S2	-37.07
Cc1ccc(C(=O)N2CCC(N3CCN(Cc4ccc(F)cc4)C(=O)C3=O)CC2)cc1	-15.71
CCc1nn(CC(=O)NCc2ccco2)c(=O)c2cc3cc(F)ccc3n12	-10.76
Cc1ccc(C)c(N2CCN(C(c3ccccc3)c3nnc(-c4ccccc4)o3)CC2)c1 (centres unmarked)	-34.11
CCOC(=O)c1ccc(N2CCN(c3cccc(Cl)c3)CC2)c(NC(=O)Nc2ccc(Cl)cc2)c1	-39.76
CCCS(=O)(=O)Nc1cc2c(cc1NCc1ccccc1)n(C)c(=O)n2C	83.84
Cc1nc2scc(C)n2c(=O)c1S(=O)(=O)Nc1ccc(N2CCOCC2)cc1	-36.68
CCOC(=O)c1ccc(N2CCN(c3ccc(F)cc3)CC2)c(NC(=O)Nc2ccc(CC)cc2)c1	33.07
CC(=O)Nc1ccc(NC(=O)c2ccc3c(c2)NC(=O)c2ccccc2S3)cc1	-13.68
Fc1ccc(C(NCCc2ccccc2)c2nnc(-c3ccccc3Cl)o2)cc1 (centres unmarked)	-38.34
CCOC(=O)c1cccc(NC(=O)CC2C(=O)N(c3ccc(F)cc3)C(=O)N2C(C)C)c1 (centres unmarked)	-19.4
Cc1nn(-c2ccc(N3CCCCC3)nn2)c(C)c1CCC(=O)NCc1ccc(Cl)cc1	-69.14
Cc1cccc(NC(=O)c2ccc(C(=O)Nc3cccc(C)c3C)cc2)c1C	-1.718
CCCOc1ccc(NC(=O)CC2C(=O)N(c3ccccc3)C(=O)N2Cc2ccc(F)cc2)cc1 (centres unmarked)	-52.61
Cc1ccc(Cl)cc1-n1c(CCC(=O)O)ccc1-c1cccs1	-4.612
CC(=O)c1ccc(NC(=O)c2cc(-c3ccc(Cl)c(Cl)c3)on2)cc1	2.763
Cc1ccc(NC(=O)c2cc3c(=O)n(Cc4ccco4)ccc3nc2C)cc1C	-41.65
COc1cccc([C@H]2Nc3ccc(S(=O)(=O)Nc4cc(C)ccc4C)cc3[C@H]3C=CC[C@H]32)c1	-10.36
Cc1nn(Cc2ccc(F)cc2)c(C)c1NC(=O)c1cc(CC(C)C)on1	-92.19
CC(C)(C)c1ccc(-c2nc(SCC(=O)Nc3ccccc3F)n3[nH]c(=O)cc3n2)cc1	-15.4
COc1ccc(C2=C(Nc3ccc(Br)c(C)c3)c3ccccc3C2=O)cc1	-56.09
CCOc1cc(C(=O)Nc2cccc(-c3nc4ccccc4o3)c2)cc(OCC)c1OCC	-16.06
N#Cc1ccccc1OCC(=O)N1CCN(c2ccccc2)CC1	-11.08
O=C(Nc1cccc(C(F)(F)F)c1)c1noc2c1CCc1ccccc1-2	-1.018
COc1ccccc1C1Nc2ccccc2-n2c(-c3ccccc3)c3c(=O)n(C)c(=O)n(C)c3c21 (centres unmarked)	-10.77
CCOC(=O)/C(C#N)=C/c1ccc(-c2ccc(Br)cc2)o1	5.366
COC(=O)CN1C(=O)CSc2ccc(S(=O)(=O)Nc3ccccc3)cc21	-20.24
CCOC(=O)c1c(NC(=O)c2cc(-c3ccc(OC)c(OC)c3)on2)sc2c1CCCC2	-14.04
Cc1ccc(CSc2nc(-c3ccc(C(C)(C)C)cc3)nc3cc(=O)[nH]n23)cc1	-15.13
Cc1cc2c(cc1C)-n1c(-c3ccccc3)c3c(=O)n(C)c(=O)n(C)c3c1C(c1ccco1)N2 (centres unmarked)	-18.25
Cc1cc(C)cc(NC(=O)c2cccc(C(=O)Nc3cc(C)cc(C)c3)c2)c1	-22.03
CCc1ccc(CNC(=O)c2cnc3sc(N4CCCCC4)nn3c2=O)cc1	-19.15

Repeated from the top, 7 entries:

| Compound | activity change (%) |
|---|---|
| `Cc1ccccc1Cn1nc(C)c(NC(=O)c2cc(CC(C)C)on2)c1C` | -47.93 |
| `Cc1cc(C)cc(NC(=O)C(=O)NC(C)c2ccccc2)c1` (centres unmarked) | 7.298 |
| `COc1cc(NC(=O)CC2C(=O)N(c3cccc(C)c3)C(=O)N2Cc2cccs2)cc(OC)c1` (centres unmarked) | -39.8 |
| `COc1ccc(-c2nc(SCCOc3cc(C)ccc3C(C)C)n3[nH]c(=O)cc3n2)cc1` | -7.163 |
| `Cc1cc(C)cc(NS(=O)(=O)c2c(C)nc3scc(C)n3c2=O)c1` | -19.38 |
| `Fc1ccc(C(Nc2ccccc2Cl)c2nnc(-c3ccccc3Cl)o2)cc1` (centres unmarked) | -24.07 |
| `COc1ccc(C2C=C(c3ccc(Cl)c(Cl)c3)Nc3ncnn32)cc1` (centres unmarked) | 22.8 |

Data taken from PubChem BioAssay AID1508623, deposited by NCATS (2021).